The record followed here is PubChem BioAssay AID504706 (National Center for Advancing Translational Sciences (NCATS), 2011).

Hit rate of the full screen: of about 320,000 compounds, about 200 (0.062%) were called active. Another 6% or so got no clear call; they are omitted. Calls follow the shape of the dose curve; as a rule, active = well fitted activation curve with a large enough effect; inconclusive = small, poorly fitted or top-dose-only effect; inactive = no such curve, though single readings can be large or run the other way. The list shows a part of the results, in another mix than the full data. Where no call is shown, the source filed none.
Potency is read from the fitted curve at half-maximal effect.

This assay is described as follows: qHTS assay for re-activators of p53 using a Luc reporter. Also: nearly all actives have a fitted effect of over 45% in size. As to activity change, positive = activation: % of control where 0% means no effect. Conditions: H1299 p53-A138V BP100-luciferase reporter, luminescence, 24 h; activity change, positive = activation: at 92.2 µM (top of the series). The gist of the method: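 p53-null H1299 cells stably carrying temperature-sensitive p53-A138V and a BP100-luciferase reporter were pinned with compounds (4-point, 1:5 series) and held 24 hrs at 37 deg C. Luminescence was read 10 min after detection reagent.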
As for `C=CCn1cc(/C=N/Nc2nc3ccccc3[nH]2)c2ccccc21`, the Potency was active: 31.6 µM. Turning to `COc1ccc([C@H]2CC(=O)C=C(/C=C/c3ccccc3)C2)cc1OC`, the “activity change, positive = activation” value was inactive: -30.1%.

As for `COc1ccc(-c2noc(CCCC(=O)O)n2)cc1`, the “activity change, positive = activation” value is inactive: -24.1%. The same measure, in the same setting: next, `Cc1ccc2nc(-c3ccc(NC(=O)COC(=O)c4ccco4)cc3)sc2c1`: 99.5%.

As to `Oc1ccc(Cl)cc1C1=NNC(c2ccc(Cl)cc2)C1` (centres undefined), the Potency is active: 28.2 µM. On the same count and under the same terms, next, `Brc1ccc(-c2csc(-c3c[nH]c4ccccc34)n2)cc1`: active: 44.7 µM.

Take `COc1ccc(/C(C)=N/Nc2ccc(C(=O)O)cc2)cc1OC`: the activity change, positive = activation came to 38.8%. Still for that read-out and setting: next, `O=C(CCN1C(=O)c2ccccc2C1=O)Nc1ccc(-c2nc3ccccc3s2)cc1`: 54.4%; `COC(=O)c1cc(NS(=O)(=O)c2ccc(N3CCC(C)CC3)c([N+](=O)[O-])c2)cc(C(=O)OC)c1`: 34.5%.

With `O=C(Nc1ccc2c(c1)OCCO2)c1c(F)cccc1F`, the Potency was active: 22.4 µM.

Turning to `Cc1ccc(/C(N)=N/OC(=O)c2ccc(C)cc2Cl)cc1`, the activity change, positive = activation worked out at 71.4%.

For `COc1cccc(/C=C2/SC(=S)N(CCCC(=O)Nc3ccc(O)cc3)C2=O)c1`, the “activity change, positive = activation” value is inactive: -43%. Turning to `CC(C)=CC(=O)Nc1nnc(-c2ccccc2)s1`, the activity change, positive = activation worked out at 37.3%. Same read-out and setting: to `CS(=O)(=O)c1ccc(Oc2ccc(-c3nnco3)cc2)c([N+](=O)[O-])c1` belongs 46.8%; to `COc1ccc(NC(=O)C(NC(=O)Cc2cccs2)c2ccc(C)cc2)cc1` (centres undefined), 57.9%.

Turning to `O=S1(=O)C=C(Sc2nnc(-c3ccccc3)o2)c2ccccc21`, the “activity change, positive = activation” value was inactive: -36.1%. In the case of `COc1ccc(-n2cnc3c(cnn3CCC#N)c2=N)cc1`, the activity change, positive = activation came to 55.3%. On the same count and under the same terms, next, `Cc1ccc(NC(=O)c2ccccc2NS(=O)(=O)c2ccc(Cl)s2)cc1`: 66%. In the case of `Cc1cc(SCC(=O)c2ccc(Cl)cc2)nc(=O)[nH]1`, the activity change, positive = activation stood at 60.4%. For the molecule `O=C(c1ccccc1)n1c(=S)nc2ccccn21`, the activity change, positive = activation came out at 179%. Take `Cc1cccnc1Nc1nc(-c2ccc(F)cc2)cs1`: the activity change, positive = activation stood at 49.6%.

In the case of `Cc1cc(N)n2nc(-c3ccc(C(C)(C)C)cc3)cc2n1`, the Potency is active: 11.2 µM.

Consider `CCOc1ccc2oc(C(=O)Nc3nccs3)c(C)c2c1`, for which the activity change, positive = activation amounted to 48.4%. The same measure, in the same setting: next, `Cc1ccc(Cn2ncc(Cl)c(Cl)c2=O)cc1`: inactive: -32.5%. The same measure, in the same setting: next, `O=C(Nc1ncc(Cc2ccccc2)s1)c1cccs1`: 55.8%; `NC(=O)c1c(NC(=O)c2cc3ccccc3o2)sc2c1CCC2`: 142%. The same measure, in the same setting: to `CCOc1cccc(-c2nc3cc(C)ccc3o2)c1` belongs 71.1%; to `Nc1c(-c2ccc(Cl)cc2)cnc2c(-c3ccc(F)cc3)cnn12`, 29.6%; to `CN1/C(=C/C(=O)c2nc(S(C)(=O)=O)ncc2Cl)C(C)(C)c2ccccc21`, inactive: -54.2%. For the molecule `Clc1ccc(-n2ncc3c(N4CCCC4)ncnc32)cc1`, the activity change, positive = activation was found to be 185%. As for `COc1ccc(/C=N/NC(=S)Nc2ccccc2[N+](=O)[O-])cc1O`, the activity change, positive = activation is 68%. Same read-out and setting: to `O=[N+]([O-])c1ccccc1COc1ccc(Cl)c2cccnc12` belongs 55.7%.

In the case of `Cc1ccc(/C=C/C(=O)c2ccc(O)cc2)cc1`, the Potency is active: 11.2 µM. As for `Cc1ccc(NC(=O)NC2CCCCC2)cc1Cl`, the activity change, positive = activation was found to be 41.7%. As for `Cc1ccc(C(=O)COC(=O)c2cccs2)cc1`, the activity change, positive = activation is 38.7%. On to `O=C(COC(=O)c1cc(S(=O)(=O)N2CCc3ccccc3C2)ccc1Cl)NCc1ccco1`, for which the activity change, positive = activation came to 48.4%. Consider `CCOC(=O)c1c(N)sc(C(=O)Nc2ccc3c(c2)OCO3)c1C`, for which the activity change, positive = activation amounted to 39.8%. Take `COc1cccc(NC(=O)c2ccc3c(c2)OCCO3)c1`: the activity change, positive = activation amounted to 30.8%. Regarding `Fc1ccccc1Nc1nc2ccccc2o1`, the activity change, positive = activation is 31.6%. The same measure, in the same setting: next, `O=C(O)COc1ccccc1/C=C1\C(=O)Nc2ccc(Br)cc21`: 26.8%. On to `Cn1c(-c2ccc(Br)o2)nc2ccccc21`, for which the activity change, positive = activation is 38.2%. On the same count and under the same terms, to `O=C(CCNc1ccccc1)c1cccc([N+](=O)[O-])c1` belongs inactive: -32.1%.

Turning to `COc1ccc(/C=C2\SC(=O)N(CCc3nnc(N)s3)C2=O)cc1`, the activity change, positive = activation is 28.5%. Still for that read-out and setting: next, `CCCCn1c(SCC(=O)N2CCCC2=O)nc2cc(S(N)(=O)=O)ccc21`: 112%; `CC(=O)Oc1ccc(Cl)cc1/C=C/c1ccc2ccccc2n1`: 123%; `CCC(=O)Nc1cc2nn(-c3ccccc3)nc2cc1Cl`: 31.4%. On the same count and under the same terms, next, `Fc1ccccc1/C=C/c1ccc2ccccc2n1`: 25.3%; `Clc1ccc(CSc2nc3ccncc3[nH]2)cc1`: 50.6%; `CCN(CC)c1ccc(/C=N/N2CCOCC2)cc1`: 24.1%. Same read-out and setting: next, `c1ccc(-c2ccc(-c3nc(-c4ccncc4)no3)cc2)cc1`: 60.9%. Consider `C/C(=N\NC(=O)c1csc(C)c1C)c1ccco1`, for which the Potency is active: 7.94 µM.

On to `CC(=O)c1sc(NC(=O)c2oc3ccc(F)cc3c2C)nc1C`, for which the activity change, positive = activation came out at 32.3%. For `O=C(Nc1nc2ccccc2[nH]1)Nc1ccccc1F`, the Potency is active: 11.2 µM. As for `CCn1cnc2cc(NCc3nc4ccccc4n3Cc3ccccc3)ccc21`, the activity change, positive = activation was found to be 56.4%. The same measure, in the same setting: to `CCCCCCOC(=O)C[N+](C)(C)CCOC1CC2CCC1(C)C2(C)C` (centres undefined) belongs inactive: -21.7%. The same measure, in the same setting: next, `CC(=O)Nc1ccc(/C=C/c2nc3ccccc3o2)cc1`: 37.9%; `COc1ccc(C2Nc3ccccc3C(=O)N2c2ccc(C)cc2)cc1COc1ccccn1` (centres undefined): 50.4%. Take `Cc1nn(C)cc1/C=C/C(=O)c1cccs1`: the Potency is active: 20 µM.

`COc1ccc(/C=N/Nc2ccccc2C(=O)O)cc1`: the activity change, positive = activation worked out at 35.3%.

In the case of `Cc1nn(-c2ccccc2)c(Cl)c1/C=C/C(=O)c1ccc(O)cc1`, the Potency was active: 22.4 µM. Turning to `c1ccc(-c2noc(-c3cccc4ccccc34)n2)nc1`, the activity change, positive = activation was 56%. As to `O=c1c2cc(F)ccc2sn1-c1ccccc1`, the “activity change, positive = activation” value was inactive: -37.4%. Still for that read-out and setting: next, `Cc1cccc(Sc2ccc([N+](=O)[O-])cc2[N+](=O)[O-])n1`: inactive: -31.2%; `COCCN(C(=O)CCl)C(C(=O)NC1CCCCC1)c1ccccc1C` (centres undefined): inactive: -23.7%; `COCCSc1ccccc1C(=O)Nc1cc(C)ccn1`: 32.8%. Same read-out and setting: to `CC[C@@H](C)[C@H](NC(=O)OC(C)(C)C)c1nnc(S(=O)(=O)Cc2cc(C)ccc2C)o1` belongs inactive: -27.2%. On the same count and under the same terms, to `COc1ccc(-n2sc3ccc(F)cc3c2=O)cc1` belongs -37.7%; to `COc1ccc(OC2CCN(S(=O)(=O)c3cccc(F)c3)CC2)cc1`, 27%. On to `CCOc1ccc(CN2CCCC(CO)(Cc3ccc(F)cc3)C2)cc1` (centres undefined), for which the “activity change, positive = activation” value is inactive: -65.7%. Still for that read-out and setting: next, `CN1/C(=C/C(=O)c2ccc(Cl)cc2)Sc2cc3c(cc21)OCO3`: 46.6%; `O=Cc1cc(Cl)ccc1OCCN1CCC(Cc2ccccc2)CC1`: inactive: -43.4%; `O=C(NOCc1ccccc1)c1ccc([N+](=O)[O-])cc1`: 68.4%.

Turning to `Cc1cccc(NC(=O)CSc2nc3ccccc3o2)c1`, the activity change, positive = activation came out at 37.4%. Still for that read-out and setting: to `O=C(CSc1ccccc1)Nc1ccc(-c2nc3ccccc3[nH]2)cc1` belongs -31.1%.
